From article PMC8306578 (International Journal of Molecular Sciences, 2021) come the findings set out here.

A short description of the data set: general procedure: Fmoc solid-phase peptide synthesis; 2-chlorotrityl chloride polystyrene resin; DIC/HOBt. The settings on record: conjugation step.

The substance DFO-c(RGDyK) registered a conjugation yield of 30%.
